## Library screening results

Sequences of proteins named here, by UniProt entry; tags and fusion partners are left off.
UniProt E9BF75, entry or part of it: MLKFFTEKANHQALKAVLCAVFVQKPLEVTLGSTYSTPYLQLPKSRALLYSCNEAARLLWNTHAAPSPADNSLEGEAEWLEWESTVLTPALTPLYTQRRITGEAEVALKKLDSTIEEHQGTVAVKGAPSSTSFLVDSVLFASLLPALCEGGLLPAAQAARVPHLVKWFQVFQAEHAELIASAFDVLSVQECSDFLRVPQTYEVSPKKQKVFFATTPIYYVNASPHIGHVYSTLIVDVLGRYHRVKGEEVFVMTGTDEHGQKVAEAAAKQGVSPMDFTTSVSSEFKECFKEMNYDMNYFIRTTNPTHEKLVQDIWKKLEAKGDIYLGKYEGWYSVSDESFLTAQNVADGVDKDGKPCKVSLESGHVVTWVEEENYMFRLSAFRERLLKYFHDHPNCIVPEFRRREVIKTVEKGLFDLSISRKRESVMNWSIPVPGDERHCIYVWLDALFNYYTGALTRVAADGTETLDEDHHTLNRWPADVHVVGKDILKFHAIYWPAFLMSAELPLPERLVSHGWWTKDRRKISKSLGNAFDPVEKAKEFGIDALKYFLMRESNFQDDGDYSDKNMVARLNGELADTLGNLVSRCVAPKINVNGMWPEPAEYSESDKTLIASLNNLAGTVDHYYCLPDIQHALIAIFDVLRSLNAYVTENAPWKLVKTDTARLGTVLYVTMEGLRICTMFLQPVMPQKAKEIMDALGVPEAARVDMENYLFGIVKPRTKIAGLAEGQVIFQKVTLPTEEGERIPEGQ

A: 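Primary screen of methionyl-tRNA synthetase; the read-out is not stated. Target: Methionyl-tRNA synthetase (putative), Leishmania donovani (UniProt E9BF75). The test concentration is not given. Values are per cent inhibition. Size under these conditions: about 68,000 compounds, about 24 of them at 50% or above in at least one test.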
B: 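Assay on Mycobacterium tuberculosis, filed only as a heat shock assay from Cornell; the read-out is not stated. The concentration is filed as 10 mM, unlikely as a test dose, so the dose is not known. Higher reads as stronger inhibition (inferred: compounds with an IC50 in retests scored well above the rest). Size under these conditions: about 69,000 compounds, about 930 of them at 50% or above in at least one test.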

All values are in %. How 0% and 100% were set is not recorded. Most values in the screen are low, and negative values occur. This is an unselected part of the compounds tested. A dash means the value is not listed here; it may have been measured.

Compound	A	B
CCOc1cccc2c1OCC(C(=O)NS(=O)(=O)c1c(C)noc1C)=C2	21.65	19.65
CNc1cc(C2CCCN(Cc3ccccc3OCC(=O)O)C2)ccn1 (stereo unspecified)	15.53	3.711
CC(=O)NCC(=O)N1Cc2nccn2CC(CN(C)C(C)C)C1.O=C(O)C(F)(F)F (stereo unspecified)	-	-1.862
CCN1CCC2(CN(C(C)=O)CC23CCN(CC2CC2)CC3)C1=O (stereo unspecified)	6.667	-
CN(Cc1nnc2n1CCC2)C(=O)c1ccc2c(c1)OCO2	15.03	2.402
O=C(O)C(F)(F)F.[H][C@@]12C[C@H](C(=O)NC)CN(CCOc3ccc(Cl)cc3)[C@]1([H])CCO2	-	-18.78
Cc1n[nH]c(C)c1CCCN(C)c1cc(N(C)C)ncn1	13.12	-34.3
Cc1ncc(CN2CCOCC2)c2cc(C(=O)c3ccc(Br)cc3)oc12.Cl	-	4.445
Cc1ccc(CN2C[C@H]3CC[C@@H]2CN(Cc2[nH]cnc2C)C3)o1	11.06	-
Cc1cc(C(=O)N2CCCC(c3nccn3C)C2)cc(S(N)(=O)=O)c1C (stereo unspecified)	-6.59	5.974
c1csc(CN2CCCC3(COCCN(Cc4c[nH]nn4)C3)C2)c1 (stereo unspecified)	5.926	-
CC(=O)N1CCCC1C(=O)NCCOc1cccc(F)c1 (stereo unspecified)	20.45	-8.721
CC(=O)N1CC(=O)N(c2cnn(C)c2)CC12CCN(CC1CC1)C2 (stereo unspecified)	14.29	-
[H][C@@]12CCN(S(=O)(=O)CC)C[C@]1(c1nnc(C)o1)CCO2	-	12.46
CCOc1ccccc1C(=O)NCCC(O)c1ccoc1 (stereo unspecified)	18.04	-4.284
[H][C@]12CCN(C(=O)NC)CC[C@@]1([H])S(=O)(=O)N(CC)C2	-	-11.52
Cc1ccccc1-n1cc(CN(C)C[C@@H]2CCCN3CCCC[C@H]23)cn1	15.33	-
CN(C(=O)Cc1cccs1)C1CCN(c2ccccn2)CC1	26.3	-12.03
O=C(CNc1cccc(CC(F)(F)F)c1)NCc1ccco1	18.26	13.41
O=C(NCc1c(F)cccc1Cl)c1cc(CN2CCCC(O)C2)on1 (stereo unspecified)	9.253	7.425
CCN1CCC(CNC(=O)C2(c3ccc(F)cc3)CC2)C1 (stereo unspecified)	7.736	-21.42
Cc1nc(CN2CCCC(NCCc3ccccc3Cl)C2)no1 (stereo unspecified)	6.103	-5.505
CCC(CC)C(O)CNC(=O)Cc1c[nH]c2ncccc12 (stereo unspecified)	19.47	0.1902
CN(C)C(=O)COCC1CN(S(C)(=O)=O)Cc2ncn(C)c21.O=C(O)C(F)(F)F (stereo unspecified)	-	-10.13
CN(Cc1nnc2ccccn12)C(=O)CCNC(=O)C(C)(C)C	4.511	-28.11
CCOC(=O)N1CCN(C(=O)c2sc(-c3ccc(F)cc3)nc2C)CC1	10.37	8.461
O=S(=O)(c1ccccc1)N1CCOC(Cn2ccnc2)C1 (stereo unspecified)	15.56	7.076
CCc1cc(NCCCOC2CCCC2)ncn1	17.98	-25.99
COC(=O)NCCC(=O)NC(C)Cc1cccc(Br)c1 (stereo unspecified)	10.38	-20.55
CCN(Cc1cc(Br)ccc1F)C(=O)C(C)NC(N)=O (stereo unspecified)	0	-11.14
[H][C@]12CC[C@]([H])(CN(CC(=O)N(C)C)C1)N(C/C=C/c1ccc(F)cc1)C2	-	3.481
CCN(CC1CCOC1)S(=O)(=O)Cc1ccccc1Cl (stereo unspecified)	6.849	-19.15
[H][C@@]12C[C@@H](c3nnc(C4CC4)o3)O[C@]1([H])CN(C(=O)c1ccsc1)C2	-	1.167
CCc1nc(CN2CCCC(N(C)CCc3cccs3)C2)no1 (stereo unspecified)	11.27	22.05
CNC(=O)Cc1noc(-c2cc3c(s2)CCC(C)(C)C3)n1	7.258	-12.39
CC(C)Nc1ccc2c(c1)C1(CCOCC1)C(=O)N2c1ccsc1	9.408	-7.515
CC(CNC(=O)N1CCN(CC(F)F)CC1)Cc1cccs1 (stereo unspecified)	17.14	6.998
Cn1cnn(CC(=O)NCc2ccccc2F)c1=O	14.66	-2.856
CC(=O)NCCC1CCCCN1S(=O)(=O)c1cccc(F)c1 (stereo unspecified)	-1.84	-14.06
Cc1ccc(CN(C(=O)NCC2CCCO2)C2CC2)o1 (stereo unspecified)	13.84	16.82
O=C(NCc1ccccc1OCCO)Nc1ccc2c(c1)CCC2	8.791	-0.5868
O=C(Nc1cnn(CC(=O)N2CCCCO2)c1)c1ccsc1	8.871	-25.26
COCCN1CC(Nc2nc(C3CCCC3)nc3c2cnn3C)CC1=O (stereo unspecified)	11.62	-14.96
CC1CCN(c2ncc3c(n2)CN(c2ccc(F)cc2)C3=O)CC1	-5.211	-2.858
Oc1cc(-c2ccsc2)nc(C2CCN(Cc3ccncc3)CC2)n1	6.383	-3.594
CC(C)C(CNC(=O)NCc1cc[nH]n1)N1CCOCC1 (stereo unspecified)	13.16	-1.344
CCOC[C@H]1CC[C@H]2[C@H](CCN2S(=O)(=O)Cc2ccccc2)O1	12.41	-
COc1cccc(OCCNC(=O)CN2CCN(C)CC2C)c1 (stereo unspecified)	15.56	-3.757
CNC(=O)N1CCCCC1c1nnc2n1CCCC2 (stereo unspecified)	16.08	-9.093
CCN(CC(=O)NC(C)C)S(=O)(=O)N1CCCCCC1	4.833	7.865
CC1CCCN(Cc2c(C3CC3)[nH]c3ncccc23)C1 (stereo unspecified)	10.42	-10.77
Cc1nocc1C(=O)N1CCOC2(COCCN(C(C)C)C2)C1.O=C(O)C(F)(F)F (stereo unspecified)	-	1.76
CN(CC(N)=O)Cc1ccc(F)cc1Cl	14.61	-11.78
Cc1nc(C(C)(C)NC(=O)Nc2ccccc2)no1	2.463	2.583
NS(=O)(=O)CCCNC(=O)c1cnc(-c2ccsc2)s1	27.59	-23.53
CCc1nc(CN2CCCC(N(C)Cc3cnc(C)cn3)C2)no1 (stereo unspecified)	16.17	-2.772
Cc1ccc(CNC(=O)NC(C)CCS(C)(=O)=O)cc1F (stereo unspecified)	20.63	-17.39
[H][C@@]12CN(Cc3ccccc3C)CC[C@]1([H])N(C(C)=O)C[C@H]2c1ccsc1	-	-13.04
COc1ncc(C(=O)N2CCC(c3nc(C)n4ccsc34)CC2)cn1	6.215	-26.12
CC(C)=CCN1CCN(Cc2cc(C)c(O)c(C)c2)CC1CCO (stereo unspecified)	2.527	-28.86
CC(=O)c1ccc(-n2c(C)cn(CCC#N)c2=O)cc1	4.665	0.2824
Cc1noc(C)c1CN1C(=O)[C@H]2CC[C@@H]1CN(Cc1ccc(Cl)cc1)C2	4.869	-
O=C(O)C(F)(F)F.O=S(=O)(C1CC1)N1CCCn2cnc(COc3cccnc3)c2C1	-	9.967
O=C(O)C(F)(F)F.O=C(O)C(F)(F)F.[H][C@@]12CN(C(=O)c3cccc(C)n3)C[C@]1([H])[C@@H]2CC(=O)Nc1cccnc1	-	5.059
Cc1ccc(C(=O)Nc2ccc(N3CCC(O)CC3)c(C#N)c2)s1	10.33	25.13

The last 6 entries again:

| Compound | A | B |
|---|---|---|
| `CC(C)=CCN1CCN(Cc2cc(C)c(O)c(C)c2)CC1CCO` (stereo unspecified) | 2.527 | -28.86 |
| `CC(=O)c1ccc(-n2c(C)cn(CCC#N)c2=O)cc1` | 4.665 | 0.2824 |
| `Cc1noc(C)c1CN1C(=O)[C@H]2CC[C@@H]1CN(Cc1ccc(Cl)cc1)C2` | 4.869 | - |
| `O=C(O)C(F)(F)F.O=S(=O)(C1CC1)N1CCCn2cnc(COc3cccnc3)c2C1` | - | 9.967 |
| `O=C(O)C(F)(F)F.O=C(O)C(F)(F)F.[H][C@@]12CN(C(=O)c3cccc(C)n3)C[C@]1([H])[C@@H]2CC(=O)Nc1cccnc1` | - | 5.059 |
| `Cc1ccc(C(=O)Nc2ccc(N3CCC(O)CC3)c(C#N)c2)s1` | 10.33 | 25.13 |

The values are deposited in ChEMBL (CHEMBL3988442, “University of Dundee, Small-Polar-MMV Screening Library” (2021)).